Source: PubChem BioAssay AID540256 (National Center for Advancing Translational Sciences (NCATS), 2011)
Among all 300,000 compounds or so, about 3,700 (1.2%) were called active. This list was built around the results that the source calls inconclusive (neither active nor inactive); the mix of calls is not that of the screen. Calls come from the whole dose curve; tested in HEK293 cells. Potencies beside an inconclusive call are fits to weak or partial responses and may not hold up.

Assay: qHTS for Inhibitors of binding or entry into cells for Lassa Virus; note: nearly all actives have a fitted effect of over 50% in size
Conditions: Lassa virus pseudotype entry inhibition, cell reporter; activity change, negative = inhibition: at 37.9 µM (top of the series) unless noted
% is set by controls: 0 for no effect and ±100 for the full control effect; potency is the fitted concentration of half-maximal effect.

Q: With CCOc1cc(/C=N/NC(=O)CNc2ccc(C)cc2)ccc1OC(=O)c1ccccc1 as the compound, how does the Potency read?
A: Its Potency is inconclusive: 13 µM [inhibitor, single point].

Q: Which Potency does the source give for COc1ccccc1NC(=O)COC(=O)c1ccc([N+](=O)[O-])s1 here?
A: Its Potency is inconclusive: 35.5 µM [inhibitor, single point].

Q: For CCc1nnc(NC(=O)[C@@H](NC(=O)c2ccc(C(C)(C)C)cc2)C(C)C)s1, which Potency is on record?
A: Its Potency is inconclusive: 32.6 µM [inhibitor, partial curve, poor fit].

Q: For O=C(Nc1nnc(C(F)(F)F)s1)c1ccc(Br)s1, which Potency is on record?
A: The Potency was inconclusive: 7.08 µM [inhibitor, partial curve, poor fit].

Q: Which “activity change, negative = inhibition” value does the source give for COc1ccc(OC)c(-c2cc(C(=O)Nc3c(C)nn(Cc4ccccc4Cl)c3C)no2)c1 here?
A: The value was inactive: -10%.

Q: Which “activity change, negative = inhibition” value does the source give for CN(C)S(=O)(=O)c1ccc(Cl)c(C(=O)NC2CCN(Cc3ccccc3)C2)c1 (centres undefined) here?
A: Its value is inactive: 2.37%.

Q: For COc1ccc(C(=O)C2CCCN(Cc3cccn3-c3ccc(Cl)cn3)C2)c(OC)c1 (centres undefined), which Potency is on record?
A: The Potency was inconclusive: 22.4 µM [inhibitor, single point].

Q: With CCCCC1C2=C(CC(C)(C)CC2=O)OC2=C1C(=O)CC(C)(C)C2 as the compound, how does the Potency read?
A: The Potency was inconclusive: 15.8 µM [inhibitor, partial curve, poor fit].

Q: Which Potency does the source give for CCc1cccc2c(C(=O)CSc3nncn3-c3ccc(OC)cc3)c[nH]c12 here?
A: The Potency was inconclusive: 9.2 µM [inhibitor, partial curve].

Q: With CC(=O)OCC1O[C@@H](O[C@@H]2C[C@H]3C(C)(C)[C@H](OC(C)=O)CC[C@]3(C)[C@H]3CC[C@]45C[C@]4(CC[C@H]5[C@@H](C)C[C@@H](O)[C@H](O)C(C)(C)O)[C@@]32C)[C@H](O)[C@@H](O)[C@@H]1O (some centres undefined) as the compound, how does the Potency read?
A: Its Potency is active: 14.6 µM.

Q: For COc1cc(NC(=O)Nn2cnnc2)cc(OC)c1OC, which Potency is on record?
A: Its Potency is inconclusive: 5.01 µM [activator, partial curve].

Q: Which Potency does the source give for CCOC(=O)c1c(C)oc2c(F)c(F)c(F)c(F)c2c1=O here?
A: The Potency was inconclusive: 31.6 µM [inhibitor, single point].

Q: With Cc1cccc(-c2nsc(SCC(=O)Nc3nccs3)n2)c1 as the compound, how does the “activity change, negative = inhibition” value read?
A: Its value is inactive: 18.9%.

Q: Which Potency does the source give for COc1ccccc1N1CCN(CC(O)COc2ccc(C)cc2C)CC1 (centres undefined) here?
A: Its Potency is inconclusive: 1.78 µM [inhibitor, partial curve, poor fit].

Q: With O=C(Nc1ccc(S(=O)(=O)Nc2ccc(F)cc2)cc1)c1ccc(CN2CCOCC2)cc1 as the compound, how does the Potency read?
A: The Potency was inconclusive: 1 µM [inhibitor, full curve, poor fit].

Q: For COc1ccc2c(c1)c(C(O)CN1CCN(Cc3ccc4c(c3)OCO4)CC1)c(C)n2C (centres undefined), which Potency is on record?
A: The Potency was inconclusive: 35.5 µM [inhibitor, single point].

Q: With CCOC(=O)C1CCCN(C(=O)C2CCN(S(=O)(=O)c3c(C)noc3/C=C/c3ccccc3F)CC2)C1 (centres undefined) as the compound, how does the “activity change, negative = inhibition” value read?
A: Its value is inactive: -19.6% [at 46.1 µM].

Q: For CCOc1ccc(C2C(C#N)=C(N)Oc3cc(C)oc(=O)c32)cc1 (centres undefined), which “activity change, negative = inhibition” value is on record?
A: Its value is inactive: 15.7%.

Q: Which Potency does the source give for O=C(/C=C/c1cccc(F)c1)NCCCn1ccnc1 here?
A: Its Potency is inconclusive: 1.26 µM [inhibitor, single point].

Q: For O=C(CSC1=Nc2ccccc2N=C(c2ccc(F)cc2)C1)Nc1cccc(C(F)(F)F)c1, which Potency is on record?
A: Its Potency is inconclusive: 15.8 µM [activator, single point].

Q: For Clc1ccccc1-c1nc(-c2cccnc2)no1, which Potency is on record?
A: The Potency was inconclusive: 1 µM [activator, single point].

Q: For O=C(Nc1ccc(Br)cc1Br)c1cccc2c1C(=O)N(C1CCCCC1)C2, which “activity change, negative = inhibition” value is on record?
A: Its value is inactive: -18.3% [at 46.1 µM].

Q: Which “activity change, negative = inhibition” value does the source give for O=[N+]([O-])c1cc(Cl)c2cccnc2c1O here?
A: Its value is inactive: -21.9% [at 46.1 µM].

Q: For Cc1ccc(S(=O)(=O)NN2C(=O)c3ccccc3NC2c2ccccc2F)cc1 (centres undefined), which Potency is on record?
A: Its Potency is inconclusive: 1.26 µM [inhibitor, single point].

Q: With Cc1ccccc1OCC(=O)OCc1cc(=O)n2nc(C3CC3)sc2n1 as the compound, how does the “activity change, negative = inhibition” value read?
A: The value was inactive: 5.89% [at 46.1 µM].

Q: For N#Cc1ccccc1OCC(=O)Nc1cc(S(=O)(=O)N2CCCCC2)ccc1N1CCOCC1, which “activity change, negative = inhibition” value is on record?
A: Its value is inactive: -17.7%.

Q: For COc1ccccc1NC(=O)CCn1nc(-c2ccccc2OC)c2c(C)cc(C)nc21, which Potency is on record?
A: Its Potency is inconclusive: 12.6 µM [inhibitor, partial curve, poor fit].

Q: For Clc1cccc(/C=N\Nc2nccs2)c1, which “activity change, negative = inhibition” value is on record?
A: The value was inactive: -7%.

Q: With CC1=C(C(=O)OCc2ccccc2)C(c2ccc(-c3ccccc3)cc2)NC(=O)N1CCCCCC(=O)O (centres undefined) as the compound, how does the Potency read?
A: Its Potency is inconclusive: 18.4 µM [inhibitor, partial curve, poor fit].

Q: Which Potency does the source give for COc1ccc(OC)c(-c2csc(NC(=O)C3COc4ccccc4O3)n2)c1 (centres undefined) here?
A: The Potency was inconclusive: 2.82 µM [inhibitor, partial curve, poor fit].

Q: With COc1cc(C)c(CN2CCC(n3nccc3NC(=O)C3CC3)CC2)cc1C as the compound, how does the Potency read?
A: The Potency was inconclusive: 6.31 µM [activator, single point].

Q: Which “activity change, negative = inhibition” value does the source give for CCC(=O)Nc1ccccc1-c1nc2ccccc2n(CC(=O)c2ccc(Cl)cc2)c1=O here?
A: The value was inactive: -9.42% [at 46.1 µM].

Q: With CCOC(=O)N1CCc2c(sc(NCc3cccc(F)c3)c2C(=O)Nc2ccc(OC)cc2OC)C1 as the compound, how does the Potency read?
A: Its Potency is inconclusive: 25.1 µM [inhibitor, partial curve, poor fit].

Q: With Cc1ccccc1NC(=O)c1ccc2nccnc2c1 as the compound, how does the “activity change, negative = inhibition” value read?
A: The value was inactive: 13.8% [at 46.1 µM].

Q: Which Potency does the source give for Cc1cccc(-c2nc3ccccc3n2Cc2ccccc2)c1 here?
A: The Potency was inconclusive: 35.5 µM [inhibitor, single point].

Q: For COc1ccc(-c2nc(-c3ccccc3)nc(Cl)c2C#N)cc1, which Potency is on record?
A: The Potency was inconclusive: 0.073 µM [inhibitor, full curve, poor fit].

Q: With O=C(C1CCC1)N1CCCc2cc(S(=O)(=O)N3CCN(c4ccccc4)CC3)ccc21 as the compound, how does the Potency read?
A: The Potency was active: 11.2 µM.

Q: Which “activity change, negative = inhibition” value does the source give for CCN(CC)c1ccc2cc(C=O)c(=O)oc2c1 here?
A: Its value is inactive: 9.6%.

Q: Which Potency does the source give for CCn1cc(S(=O)(=O)Nc2cc(C(=O)OC)ccc2C)cn1 here?
A: The Potency was inconclusive: 6.31 µM [inhibitor, single point].

Q: Which “activity change, negative = inhibition” value does the source give for COc1ccc(CNC(=S)NC2CCCCC2)cc1 here?
A: The value was inactive: 12.6% [at 46.1 µM].

Q: Which Potency does the source give for COc1ccc(/C=N/n2c(SC)nnc(C(C)(C)C)c2=O)cc1 here?
A: The Potency was inconclusive: 5.01 µM [inhibitor, full curve, poor fit].

Q: Which Potency does the source give for CCOC(=O)N1CCC(NC(=O)c2cc3c(-c4ccc(OC)c(OC)c4)nn(C)c3s2)CC1 here?
A: The Potency was inconclusive: 0.562 µM [inhibitor, full curve, poor fit].

Q: Which Potency does the source give for CCCCNc1nc(-c2ccccc2)c(C(=O)OCC)cc1C#N here?
A: The Potency was active: 11.2 µM.

Q: Which Potency does the source give for CCc1nnc(NC(=O)c2ccc(S(=O)(=O)N(CC(C)C)CC(C)C)cc2)o1 here?
A: The Potency was inconclusive: 35.5 µM [inhibitor, single point].

Q: For O=C(COC(=O)c1c(F)cccc1Cl)NC1CCCC1, which “activity change, negative = inhibition” value is on record?
A: Its value is inactive: 23.2%.

Q: Which Potency does the source give for Cc1cc(N)c2ccccc2[n+]1CCCCCCCCCC[n+]1c(C)cc(N)c2ccccc21 here?
A: Its Potency is inconclusive: 18.3 µM [inhibitor, partial curve, poor fit].

Q: For O=C(N1CCOCC1)N1CCN(c2nc(-c3ccc(F)cc3)cs2)CC1, which Potency is on record?
A: Its Potency is inconclusive: 18.3 µM [inhibitor, single point].

Q: Which “activity change, negative = inhibition” value does the source give for COc1cc(C2CC(=O)c3cnc(N4CCN(CCO)CC4)nc3C2)cc(OC)c1OC (centres undefined) here?
A: Its value is inactive: -21% [at 46.1 µM].

Q: With Cn1c(=O)c(=O)n(C)c2cc(S(=O)(=O)N3CCN(c4ccc(F)cc4)CC3)ccc21 as the compound, how does the Potency read?
A: The Potency was inconclusive: 7.08 µM [inhibitor, partial curve, poor fit].

Q: Which Potency does the source give for CCN(CC(=O)Nc1ccc([N+](=O)[O-])cc1OC)c1ccccc1 here?
A: The Potency was inconclusive: 9.2 µM [inhibitor, single point].

Q: With Cc1ccc(S(=O)(=O)N2CCOCC2)cc1NC(=O)CSc1nnc2cc(C)c3ccccc3n12 as the compound, how does the Potency read?
A: Its Potency is inconclusive: 0.794 µM [inhibitor, partial curve, poor fit].

Q: Which Potency does the source give for NS(=O)(=O)c1ccc(CCNC(=O)COC(=O)/C=C/c2cc(Br)ccc2F)cc1 here?
A: Its Potency is inconclusive: 3.16 µM [activator, partial curve, poor fit].

Q: For O=C(Nc1ccc(Cl)cn1)c1ccccc1SCc1ccccc1, which Potency is on record?
A: The Potency was inconclusive: 35.5 µM [inhibitor, single point].

Q: Which Potency does the source give for O=C(CCCn1c(=O)c2ccccc2n(Cc2cccc(Cl)c2)c1=O)NCCc1ccc(Cl)cc1 here?
A: Its Potency is inconclusive: 25.1 µM [inhibitor, single point].

Q: With CCOc1ccc(C(C(=O)Nc2ccc(F)cc2)N(C(=O)Cn2nnc3ccccc32)C2CC2)cc1 (centres undefined) as the compound, how does the “activity change, negative = inhibition” value read?
A: The value was inactive: -13.6%.

Q: Which Potency does the source give for CC(C)N(Cc1nccn1C)C(=O)c1cc(COc2ccc3ncccc3c2)on1 here?
A: The Potency was inconclusive: 35.5 µM [inhibitor, single point].

Q: Which “activity change, negative = inhibition” value does the source give for CC1(C)Cc2c(sc3c2C2=NCCN2C=N3)CO1 here?
A: Its value is inactive: 17.4%.

Q: With Cc1ccc(S(=O)(=O)N2CCCc3cc(NS(=O)(=O)c4cc(F)ccc4F)ccc32)cc1 as the compound, how does the Potency read?
A: Its Potency is inconclusive: 20 µM [inhibitor, single point].

Q: For COc1ccc(NC(=O)CSc2nc(C)cc(C)n2)cc1, which “activity change, negative = inhibition” value is on record?
A: The value was inactive: 5.05%.

Q: Which “activity change, negative = inhibition” value does the source give for CC(=NCCCn1ccnc1)c1c(O)n(C)c(=O)n(C)c1=O here?
A: The value was inactive: -21.5%.

Q: For COc1cc(-c2nnc(SCC(=O)N3CCOCC3)o2)cc(OC)c1OC, which Potency is on record?
A: The Potency was inconclusive: 7.94 µM [inhibitor, partial curve, poor fit].

Q: With CN(C)C(=O)Oc1ccc[n+](C)c1 as the compound, how does the Potency read?
A: The Potency was inconclusive: 2.31 µM [activator, full curve, poor fit].

Q: Which “activity change, negative = inhibition” value does the source give for COc1ccc(OC)c(Nc2cc(-c3ccccc3)nc(N)n2)c1 here?
A: Its value is inactive: -29.1%.

Q: For COc1ccccc1C(=O)COC(=O)c1cccs1, which “activity change, negative = inhibition” value is on record?
A: The value was inactive: 17.2%.

Q: With O=c1c2cc(Br)ccc2[nH]c(=S)n1Cc1ccccn1 as the compound, how does the “activity change, negative = inhibition” value read?
A: The value was inactive: 17.7%.

Q: Which Potency does the source give for Cc1ccc(NC(=O)N(Cc2ccc3c(c2)OCO3)C2CCN(Cc3ccccc3)CC2)cc1F here?
A: The Potency was inconclusive: 35.5 µM [inhibitor, single point].

Q: Which “activity change, negative = inhibition” value does the source give for CC(C)(C)C(=O)NC(NC(=O)C(C)(C)C)c1ccc([N+](=O)[O-])cc1 here?
A: Its value is inactive: 3.5%.

Q: Which “activity change, negative = inhibition” value does the source give for CCCCOc1ccc(-c2nnn(C(C)C(=O)OCC)n2)cc1 (centres undefined) here?
A: The value was inactive: 9.71%.

Q: For C=CCNC(=O)Cn1c(=O)c2c(ncn2CCC(C)C)n(Cc2ccccc2)c1=O, which Potency is on record?
A: Its Potency is inconclusive: 22.4 µM [inhibitor, single point].
